Assay results taken from patent publication US20230002446A1 (The University of Sydney, priority 2019, published 2023).

Assay: general procedure: peptide synthesis; Chemmatrix CTC resin
Conditions: whole synthesis, scale 12.5 μmol

Substance: H-KKKK[AEEA]MTPGTQSPFFLLLLLTVLTVV-OH (SMILES CSCC[C@H](NC(=O)COCCOCCNC(=O)[C@H](CCCCN)NC(=O)[C@H](CCCCN)NC(=O)[C@H](CCCCN)NC(=O)[C@@H](N)CCCCN)C(=O)N[C@H](C(=O)N1CCC[C@H]1C(=O)NCC(=O)N[C@H](C(=O)N[C@@H](CCC(N)=O)C(=O)N[C@@H](CO)C(=O)N1CCC[C@H]1C(=O)N[C@@H](Cc1ccccc1)C(=O)N[C@@H](Cc1ccccc1)C(=O)N[C@@H](CC(C)C)C(=O)N[C@@H](CC(C)C)C(=O)N[C@@H](CC(C)C)C(=O)N[C@@H](CC(C)C)C(=O)N[C@@H](CC(C)C)C(=O)N[C@H](C(=O)N[C@H](C(=O)N[C@@H](CC(C)C)C(=O)N[C@H](C(=O)N[C@H](C(=O)N[C@H](C(=O)O)C(C)C)C(C)C)[C@@H](C)O)C(C)C)[C@@H](C)O)[C@@H](C)O)[C@@H](C)O)
- isolated mass: 9.6 mg
- isolated yield: 26%

[ ]: non-standard residue; d: D form. AEEA = NCCOCCOCC(=O)O
